The record followed here is PubChem BioAssay AID192 (DTP/NCI, 2004).

The list shows only some results of the screen, not a fair sample: it gathers tests that were run many times, whatever their T/C, doses with no T/C, and many T/C values between a quarter and a half above the control. Further doses and runs are listed elsewhere. T/C gives the treated animals as a percentage of the vehicle group. Some entries give survivors of the animals treated and no T/C: the source files T/C as zero there, which appears to mark a toxic dose or a test without result, not a measured value. Some survivor counts are full or nearly so, which does not show that the dose was tolerated: survival well below the control is almost never listed, so the zero probably covers shortened survival too. Survivors were counted at the toxicity check, usually on the fifth day, unless a day is given; later deaths do not show. Schedule codes are those of the source, taken here to give the interval after Q, in days (D) or hours (H), and the number of doses after X. Some doses were run more than once; the results are listed from low to high. Where survival is the endpoint, this PubChem deposit counts one and a half times the control or more as active, and values a quarter to a half above the control carry no call in these data; other NCI protocols may use other cut-offs.

In the assay the test system is BDF1 mice, B16 melanoma ip, median survival T/C. Nature of the assay: NCI In Vivo Anticancer Drug Screen. Data for tumor model B16 Melanoma (intraperitoneal) in B6D2F1 (BDF1) mice. The note with it: T/C endpoint: median survival time, higher T/C = longer survival. In outline: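 Vehicle-treated animals serve as the reference (C); treated animals (T) are scored for survival or tumor size after tumor transplantation.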

The mark [1] stands for this setting: dose: 100.0 mg/kg/injection, schedule: Q01DX009 (ip), vehicle: saline with Tween-80.
Setting [2] is: dose: 200.0 mg/kg/injection, schedule: Q01DX009 (ip), vehicle: saline with Tween-80.
Setting [3] is: dose: 400.0 mg/kg/injection, schedule: Q01DX009 (ip), vehicle: saline with Tween-80.
The mark [4] stands for this setting: dose: 400.0 mg/kg/injection, schedule: Q01DX009 (ip), vehicle: saline.
[5] abbreviates: dose: 200.0 mg/kg/injection, schedule: Q01DX009 (ip), vehicle: saline.
Setting [6] is: dose: 50.0 mg/kg/injection, schedule: Q01DX009 (ip), vehicle: Klucel (hydroxypropylcellulose) (HPC).
Where [7] appears, read: dose: 100.0 mg/kg/injection, schedule: Q01DX009 (ip), vehicle: Klucel (hydroxypropylcellulose) (HPC).
Where [8] appears, read: dose: 100.0 mg/kg/injection, schedule: Q01DX009 (ip), vehicle: saline.
[9] abbreviates: dose: 25.0 mg/kg/injection, schedule: Q01DX009 (ip), vehicle: Klucel (hydroxypropylcellulose) (HPC).
Setting [10] is: dose: 12.5 mg/kg/injection, schedule: Q01DX009 (ip), vehicle: Klucel (hydroxypropylcellulose) (HPC).

Consider `CC1(c2ccc(Cl)cc2)OC(=O)C(=Cc2ccc([N+](=O)[O-])s2)C(=O)O1` (stereo unspecified), for which the survivor count by setting is: (dose: 25.0 mg/kg/injection, schedule: Q01DX009 (ip), vehicle: saline with Tween-80) 10 of 10; (dose: 50.0 mg/kg/injection, schedule: Q01DX009 (ip), vehicle: saline with Tween-80) 10 of 10; under setting [1], 9 of 10; under setting [2], 2 of 10.

Regarding `CCC(C)C(NC(=O)OC(C)(C)c1ccc(-c2ccccc2)cc1)C(=O)O` (stereo unspecified), the survivor count under setting [3] is 0 of 10.

For `CCCCCn1c(C)cc(/C=C\c2ccc3cc(C)ccc3[n+]2C)c1C`, the survivor count runs as follows: (dose: 2.5 mg/kg/injection, schedule: Q01DX009 (ip), vehicle: Klucel (hydroxypropylcellulose) (HPC)) 2 of 10; (dose: 5.0 mg/kg/injection, schedule: Q01DX009 (ip), vehicle: Klucel (hydroxypropylcellulose) (HPC)) 0 of 10; (dose: 10.0 mg/kg/injection, schedule: Q01DX009 (ip), vehicle: Klucel (hydroxypropylcellulose) (HPC)) 0 of 10; (dose: 20.0 mg/kg/injection, schedule: Q01DX009 (ip), vehicle: Klucel (hydroxypropylcellulose) (HPC)) 0 of 10.

With `COC(=O)[C@]1(C)CCC[C@]2(C)[C@H]3CC4OO[C@@]3(CC[C@H]21)[C@H]1O[C@@]41C(C)C`, the survivor count under setting [3] is 1 of 6.

`CN1NCc2cncnc21`: the survivor count under setting [3] is listed as 7 of 10.

Consider `O=C([O-])C[n+]1ccccc1`, for which the survivor count under setting [4] is on record as 8 of 10.

`COc1ccc(S(=O)(=O)N=N/C=C2\C=CC=CN2O)cc1OC`: the T/C under setting [1] is 137 % of control.

As to `COc1cc(C2=NCCc3cc4c(cc32)OCO4)cc(OC)c1OC`, under setting [5], the survivor count is 8 of 10.

Turning to `COC1=C(Br)[C@H](O)[C@](O)(CC#N)C=C1Br`, the survivor count under setting [6] is given as 10 of 10; the survivor count under setting [7] is 5 of 10; the survivor count (dose: 140.0 mg/kg/injection, schedule: Q01DX009 (ip), vehicle: Klucel (hydroxypropylcellulose) (HPC)) is 10 of 10.

Consider `CN(C)CCSC(=O)N1c2ccccc2C(C)(C)c2ccccc21`, for which the survivor count is 9 of 10 under setting [8], 0 of 10 under setting [5] and 0 of 10 under setting [4].

As to `Nc1ccc(OCc2ccccc2)cc1`, the survivor count is, setting by setting: (dose: 6.25 mg/kg/injection, schedule: Q01DX009 (ip), vehicle: saline with Tween-80) 10 of 10; (dose: 12.5 mg/kg/injection, schedule: Q01DX009 (ip), vehicle: saline with Tween-80) 10 of 10.

For `CN1CC[C@]23c4c5ccc(O)c4O[C@H]2C(=O)CC[C@H]3[C@H]1C5`, the survivor count is 1 of 6 (dose: 100.0 mg/kg/injection, schedule: Q01DX005 (iv), vehicle: saline) and 0 of 6 (dose: 200.0 mg/kg/injection, schedule: Q01DX005 (iv), vehicle: saline).

Consider `O=C(O)c1c(-c2ccccc2)[nH]c2cc(Cl)ccc2c1=O`, for which the survivor count is 5 of 10 (dose: 100.0 mg/kg/injection, schedule: Q01DX005 (ip), vehicle: saline); 9 of 10 under setting [1]; 0 of 10 under setting [2]; 0 of 10 (dose: 400.0 mg/kg/injection, schedule: Q01DX005 (ip), vehicle: saline); 1 of 10 under setting [3]; 7 of 10 (dose: 400.0 mg/kg/injection, schedule: Q04DX003 (ip), vehicle: saline with Tween-80).

Regarding `O=P1(NCCCl)OCCCN1CCCl` (stereo unspecified), the T/C is, setting by setting: (dose: 50.0 mg/kg/injection, schedule: Q01DX009 (ip), vehicle: water) 128 and 133 % of control; (dose: 50.0 mg/kg/injection, schedule: Q02DX009 (ip), vehicle: saline) 126 and 133 % of control; under setting [8], 137 and 147 % of control; (dose: 100.0 mg/kg/injection, schedule: Q02DX009 (ip), vehicle: saline) 126 and 133 % of control; (dose: 100.0 mg/kg/injection, schedule: Q02DX009 (ip), vehicle: water) 143 % of control. Besides, the survivor count reads like this: under setting [8], 10 of 10; (dose: 100.0 mg/kg/injection, schedule: Q01DX009 (ip), vehicle: water) 10 of 10; under setting [5], 9 of 10, 10 of 10, 6 of 6; (dose: 200.0 mg/kg/injection, schedule: Q01DX009 (ip), vehicle: water) 10 of 10; under setting [4], 3 of 10 and 4 of 10; (dose: 400.0 mg/kg/injection, schedule: Q01DX009 (ip), vehicle: water) 7 of 10 and 10 of 10. The survivor count by setting is: (dose: 400.0 mg/kg/injection, schedule: Q02DX009 (ip), vehicle: saline) 8 of 10 and 10 of 10; (dose: 400.0 mg/kg/injection, schedule: Q02DX009 (ip), vehicle: water) 10 of 10.

On to `CC(CN1CCN(CCOCCO)CC1)CN1c2ccccc2Sc2ccc(Cl)cc21` (stereo unspecified), for which the survivor count was 10 of 10 (dose: 12.5 mg/kg/injection, schedule: Q01DX009 (ip), vehicle: saline); 8 of 10 (dose: 25.0 mg/kg/injection, schedule: Q01DX009 (ip), vehicle: saline); 8 of 10 (dose: 50.0 mg/kg/injection, schedule: Q01DX009 (ip), vehicle: saline).

In the case of `C/C=C\C#N`, under setting [5], the survivor count is given as 4 of 10.

Take `N#CC(C#N)=C/C=C/c1cccc([N+](=O)[O-])c1`: the survivor count was 9 of 10 under setting [9] and 5 of 10 under setting [6].

With `O=NN(CCCl)C(=O)Nc1ccc2c3c(cccc13)-c1ccccc1-2`, the T/C (dose: 6.25 mg/kg/injection, schedule: Q01DX009 (ip), vehicle: Klucel (hydroxypropylcellulose) (HPC)) was 147 % of control; the T/C under setting [10] was 135 % of control; the T/C under setting [9] was 134 % of control; the T/C under setting [6] is 131 % of control; the T/C under setting [7] was 148 % of control. The survivor count (dose: 200.0 mg/kg/injection, schedule: Q01DX009 (ip), vehicle: Klucel (hydroxypropylcellulose) (HPC)) is given as 7 of 10.

With `COc1cc2cc3cc4cc(OC)c(OC)cc4c(C)[n+]3cc2cc1OC` (tested in a mixture with another compound), the survivor count is, setting by setting: (dose: 40.0 mg/kg/injection, schedule: Q01DX009 (ip), vehicle: Klucel (hydroxypropylcellulose) (HPC)) 10 of 10; (dose: 80.0 mg/kg/injection, schedule: Q01DX009 (ip), vehicle: Klucel (hydroxypropylcellulose) (HPC)) 9 of 10; (dose: 160.0 mg/kg/injection, schedule: Q01DX009 (ip), vehicle: Klucel (hydroxypropylcellulose) (HPC)) 1 of 10.

Consider `CC(=O)Nc1ccc([I+]c2ccc([N+](=O)[O-])cc2)cc1`, for which, under setting [10], the survivor count is 10 of 10.

On to `C[n+]1ccc(Nc2ccc(NC(=O)c3ccc(Nc4cc[n+](C)c5ccc([N+](=O)[O-])cc45)cc3)cc2)cc1`, for which the survivor count was 10 of 10 (dose: 64.0 mg/kg/injection, schedule: Q01DX009 (ip), vehicle: saline) and 10 of 10 (dose: 128.0 mg/kg/injection, schedule: Q01DX009 (ip), vehicle: saline).

Consider `CC(C)CC(Br)C(=O)NCC(=O)O` (stereo unspecified), for which the survivor count is, setting by setting: under setting [1], 10 of 10; under setting [2], 10 of 10; under setting [3], 10 of 10.

For `COC(=O)c1n[nH]c(C(C)C)c1N=NN(C)C`, the survivor count was 10 of 10 (dose: 150.0 mg/kg/injection, schedule: Q01DX009 (ip), vehicle: saline with Tween-80) and 6 of 10 (dose: 300.0 mg/kg/injection, schedule: Q01DX009 (ip), vehicle: saline with Tween-80).
